Measured values as given in PubChem BioAssay AID624375 (Broad Institute, 2012).
Inconclusive means that the source gave no clear call. Such entries were picked first, then a sample of the others. Active and inactive are the calls of the source.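 Rule for the calls: active = fitted curve reaches -35% activity change at a concentration under twice the top valid dose, in every replicate test; inconclusive = replicate tests disagree on the call; inactive = the rest, including activity in the opposite direction.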

assay: EBV-transformed lymphoblastoid cell viability decrease, dose response, EBV LMP1 NF-kB inhibitor project, CellTiter-Glo, dry powder, replicate tests (AID 624375); settings: EBV-transformed LCL viability, CellTiter-Glo ATP luminescence, 48 h; at 19.5 µM (top of the series) unless noted

Structure (SMILES) | activity change, negative = inhibition
Oc1cccc(C(Nc2nccs2)c2ccc3cccnc3c2O)c1 (stereo not given) | inconclusive: 5.21%
COc1cccc(/C=N/Nc2ncnc3c2ncn3Cc2ccccc2)c1O | inactive: -7.51%
COc1ccc2nc(Nc3nc(C)c(CCC(C)C)c(=O)[nH]3)nc(C)c2c1 | inconclusive: -22.8%
C[C@@H]1CCCCO[C@H](CN(C)CC2CCCCC2)[C@H](C)CN([C@@H](C)CO)C(=O)c2cc(NC(=O)NC3CCCCC3)ccc2O1 | inconclusive: -4.75%
C[C@@H]1CCCCO[C@H](CN(C)C(=O)CCC(F)(F)F)[C@H](C)CN([C@@H](C)CO)C(=O)c2cc(NC(=O)CCC(F)(F)F)ccc2O1 | inconclusive: -6.95%
O=C(Nc1cc(C(F)(F)F)cc(C(F)(F)F)c1)Nc1cnn(-c2ccc([N+](=O)[O-])cc2)c1C(F)(F)F | inconclusive: 7.13%
C/C=C/C/C=C/CCC(=O)[C@H]1O[C@H]1C(N)=O | inconclusive: -52% [at 90 µM]
COc1ccc(C(=O)Nc2ccc3[nH]ccc3c2)cc1 | inconclusive: 1.04%
CNC[C@@H]1Oc2ccc(NS(=O)(=O)c3cn(C)cn3)cc2CC(=O)N([C@H](C)CO)C[C@@H]1C | inconclusive: -0.477% [at 21 µM]
C=C1C[C@]23C[C@@]1(O)CC[C@H]2[C@@]12C=C[C@H](O)[C@@](C)(C(=O)O1)[C@H]2[C@@H]3C(=O)O | inactive: 5.8% [at 12 µM]
O=c1[nH]c(Nc2nc3ccccc3o2)nc2c1CCCC2 | inconclusive: -9.8%
Cc1ccc(S(=O)(=O)NC(CC(C)C)C(=O)NCC(c2ccco2)N2CCCCC2)cc1 (stereo not given) | inconclusive: -6.54%
c1ccc(Cn2c3ccccc3c3nnc(SCCN4CCCCC4)nc32)cc1 | inconclusive: 44.7%
C[C@H](CO)N1C[C@H](C)[C@@H](CN(C)CC2CCCCC2)OCCCC[C@H](C)Oc2ccc(NC(=O)Nc3cccc4ccccc34)cc2C1=O | inconclusive: -8.57%
Cc1ccc(S(=O)(=O)Nc2ccc3c(c2)C(=O)N([C@@H](C)CO)C[C@H](C)[C@@H](CN(C)C(=O)CCC(F)(F)F)OCCCC[C@H](C)O3)cc1 | inconclusive: -3.59%
C[C@@H]1CCCCO[C@H](CN(C)C(=O)c2ccccc2)[C@H](C)CN([C@@H](C)CO)C(=O)c2cc(NC(=O)Nc3ccc(F)cc3)ccc2O1 | inactive: 2.16%
COc1ccccc1[C@]1(C)ON(c2ccccc2C(F)(F)F)C1=O | inconclusive: -7.63%
COc1ccc(-c2csc3ncnc(NCCN4CCOCC4)c23)cc1 | inactive: -6.51%
Cc1cc(NC(=O)c2ccc3c(c2)OCCO3)no1 | inconclusive: -0.28%
CC1CN(C(=O)CSc2nnc3c4ccccc4n(Cc4cccc(Cl)c4)c3n2)CCN1C(=O)c1ccccc1F (stereo not given) | inconclusive: 2.15%

As a short view, 2 of the compounds above:
Structure (SMILES) | activity change, negative = inhibition
Oc1cccc(C(Nc2nccs2)c2ccc3cccnc3c2O)c1 (stereo not given) | inconclusive: 5.21%
COc1cccc(/C=N/Nc2ncnc3c2ncn3Cc2ccccc2)c1O | inactive: -7.51%
